Measured values: the supplement of paper PMC10849652
The list shows a part of the results. Residues, ends and D or L forms follow the SMILES beside them. *: point of attachment. Cbz = O=C(OCc1ccccc1)*

Amino acid sequences for entries named in this document (tags omitted). A change or cut given only in a name is not applied to a line headed by its entry.
UniProt Q14671: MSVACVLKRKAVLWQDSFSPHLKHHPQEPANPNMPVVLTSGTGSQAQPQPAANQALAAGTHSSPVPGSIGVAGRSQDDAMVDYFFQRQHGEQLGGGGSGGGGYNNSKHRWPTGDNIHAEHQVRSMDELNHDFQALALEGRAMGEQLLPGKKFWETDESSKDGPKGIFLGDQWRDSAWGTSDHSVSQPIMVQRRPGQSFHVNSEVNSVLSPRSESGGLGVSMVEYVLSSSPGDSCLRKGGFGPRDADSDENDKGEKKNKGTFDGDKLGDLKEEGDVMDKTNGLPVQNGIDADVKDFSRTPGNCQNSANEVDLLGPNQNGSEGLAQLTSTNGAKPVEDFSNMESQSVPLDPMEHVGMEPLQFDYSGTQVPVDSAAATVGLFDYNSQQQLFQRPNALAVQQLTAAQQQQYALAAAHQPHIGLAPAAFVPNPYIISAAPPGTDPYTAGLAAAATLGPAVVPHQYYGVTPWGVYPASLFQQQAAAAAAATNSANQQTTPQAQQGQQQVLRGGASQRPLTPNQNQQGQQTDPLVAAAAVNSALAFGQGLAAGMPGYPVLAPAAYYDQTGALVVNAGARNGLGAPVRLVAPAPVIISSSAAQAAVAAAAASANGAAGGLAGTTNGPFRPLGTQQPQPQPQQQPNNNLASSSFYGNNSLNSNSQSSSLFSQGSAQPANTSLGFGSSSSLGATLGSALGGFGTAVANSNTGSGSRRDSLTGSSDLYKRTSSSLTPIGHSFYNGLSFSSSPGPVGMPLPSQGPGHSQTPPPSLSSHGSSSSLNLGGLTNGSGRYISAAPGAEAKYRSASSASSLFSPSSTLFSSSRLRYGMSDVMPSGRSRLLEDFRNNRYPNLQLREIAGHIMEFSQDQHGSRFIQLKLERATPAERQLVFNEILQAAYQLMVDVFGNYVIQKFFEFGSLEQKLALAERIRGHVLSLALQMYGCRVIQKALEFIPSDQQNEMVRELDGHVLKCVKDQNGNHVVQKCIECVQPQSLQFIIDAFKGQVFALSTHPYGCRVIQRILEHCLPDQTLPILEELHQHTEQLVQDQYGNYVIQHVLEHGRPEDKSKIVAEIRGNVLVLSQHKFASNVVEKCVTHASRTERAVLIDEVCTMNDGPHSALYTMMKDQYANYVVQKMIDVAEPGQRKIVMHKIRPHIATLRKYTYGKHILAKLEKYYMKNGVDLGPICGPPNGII
UniProt Q12913: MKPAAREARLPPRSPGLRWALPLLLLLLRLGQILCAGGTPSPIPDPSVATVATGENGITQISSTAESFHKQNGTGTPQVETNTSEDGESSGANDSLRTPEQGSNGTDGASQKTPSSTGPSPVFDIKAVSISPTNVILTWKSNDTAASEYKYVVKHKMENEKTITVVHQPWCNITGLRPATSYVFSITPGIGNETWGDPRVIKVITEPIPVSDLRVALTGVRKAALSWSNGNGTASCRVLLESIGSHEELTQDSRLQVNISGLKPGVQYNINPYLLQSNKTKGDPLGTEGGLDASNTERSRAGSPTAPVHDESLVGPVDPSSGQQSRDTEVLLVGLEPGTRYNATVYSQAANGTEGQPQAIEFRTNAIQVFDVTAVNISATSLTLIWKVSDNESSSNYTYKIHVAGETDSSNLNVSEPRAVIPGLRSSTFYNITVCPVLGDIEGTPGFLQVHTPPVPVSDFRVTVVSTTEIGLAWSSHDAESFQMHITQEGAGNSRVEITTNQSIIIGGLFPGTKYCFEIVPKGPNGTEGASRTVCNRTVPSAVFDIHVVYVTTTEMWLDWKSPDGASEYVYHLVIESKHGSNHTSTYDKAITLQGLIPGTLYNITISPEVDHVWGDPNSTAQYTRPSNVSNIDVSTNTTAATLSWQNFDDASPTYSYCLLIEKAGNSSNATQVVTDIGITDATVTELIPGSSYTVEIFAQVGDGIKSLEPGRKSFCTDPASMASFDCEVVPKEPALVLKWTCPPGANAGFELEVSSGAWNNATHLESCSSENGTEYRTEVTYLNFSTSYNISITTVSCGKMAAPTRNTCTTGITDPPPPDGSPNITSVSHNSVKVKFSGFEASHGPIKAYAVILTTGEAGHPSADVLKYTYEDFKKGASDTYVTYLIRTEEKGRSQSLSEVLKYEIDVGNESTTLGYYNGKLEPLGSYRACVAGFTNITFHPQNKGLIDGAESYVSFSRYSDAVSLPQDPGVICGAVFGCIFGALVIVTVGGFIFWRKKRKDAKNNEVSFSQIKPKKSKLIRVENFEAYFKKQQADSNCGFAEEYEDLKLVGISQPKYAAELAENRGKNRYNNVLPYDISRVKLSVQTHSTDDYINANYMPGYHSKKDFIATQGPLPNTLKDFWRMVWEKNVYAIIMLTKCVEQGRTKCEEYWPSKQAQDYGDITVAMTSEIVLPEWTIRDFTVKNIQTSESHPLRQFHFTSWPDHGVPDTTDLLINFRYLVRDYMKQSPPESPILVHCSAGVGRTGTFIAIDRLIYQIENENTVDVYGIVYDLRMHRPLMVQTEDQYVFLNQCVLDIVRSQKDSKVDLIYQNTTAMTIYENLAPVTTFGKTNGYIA
UniProt P28074: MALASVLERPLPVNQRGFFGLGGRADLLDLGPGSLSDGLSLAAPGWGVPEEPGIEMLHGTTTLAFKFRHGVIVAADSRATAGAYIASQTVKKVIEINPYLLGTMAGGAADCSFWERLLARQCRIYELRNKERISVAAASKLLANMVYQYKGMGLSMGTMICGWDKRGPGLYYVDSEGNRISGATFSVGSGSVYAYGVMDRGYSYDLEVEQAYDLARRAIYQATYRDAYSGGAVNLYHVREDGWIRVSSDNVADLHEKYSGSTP
UniProt Q86Y79: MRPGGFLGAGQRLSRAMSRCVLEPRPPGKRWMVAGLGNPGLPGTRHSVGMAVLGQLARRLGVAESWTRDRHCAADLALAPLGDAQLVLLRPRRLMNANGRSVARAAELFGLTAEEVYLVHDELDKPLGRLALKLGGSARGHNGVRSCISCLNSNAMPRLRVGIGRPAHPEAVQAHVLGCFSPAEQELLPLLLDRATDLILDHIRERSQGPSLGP
UniProt Q9UJV8: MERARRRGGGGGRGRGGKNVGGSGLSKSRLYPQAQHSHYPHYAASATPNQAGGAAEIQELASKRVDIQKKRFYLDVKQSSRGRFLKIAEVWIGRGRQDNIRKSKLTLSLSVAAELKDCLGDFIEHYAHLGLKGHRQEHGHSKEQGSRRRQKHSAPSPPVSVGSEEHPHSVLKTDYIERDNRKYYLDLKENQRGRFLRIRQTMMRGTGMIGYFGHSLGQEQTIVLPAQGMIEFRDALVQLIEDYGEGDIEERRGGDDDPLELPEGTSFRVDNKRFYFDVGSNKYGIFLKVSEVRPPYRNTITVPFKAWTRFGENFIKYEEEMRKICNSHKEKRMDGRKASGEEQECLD
UniProt Q9NYI0: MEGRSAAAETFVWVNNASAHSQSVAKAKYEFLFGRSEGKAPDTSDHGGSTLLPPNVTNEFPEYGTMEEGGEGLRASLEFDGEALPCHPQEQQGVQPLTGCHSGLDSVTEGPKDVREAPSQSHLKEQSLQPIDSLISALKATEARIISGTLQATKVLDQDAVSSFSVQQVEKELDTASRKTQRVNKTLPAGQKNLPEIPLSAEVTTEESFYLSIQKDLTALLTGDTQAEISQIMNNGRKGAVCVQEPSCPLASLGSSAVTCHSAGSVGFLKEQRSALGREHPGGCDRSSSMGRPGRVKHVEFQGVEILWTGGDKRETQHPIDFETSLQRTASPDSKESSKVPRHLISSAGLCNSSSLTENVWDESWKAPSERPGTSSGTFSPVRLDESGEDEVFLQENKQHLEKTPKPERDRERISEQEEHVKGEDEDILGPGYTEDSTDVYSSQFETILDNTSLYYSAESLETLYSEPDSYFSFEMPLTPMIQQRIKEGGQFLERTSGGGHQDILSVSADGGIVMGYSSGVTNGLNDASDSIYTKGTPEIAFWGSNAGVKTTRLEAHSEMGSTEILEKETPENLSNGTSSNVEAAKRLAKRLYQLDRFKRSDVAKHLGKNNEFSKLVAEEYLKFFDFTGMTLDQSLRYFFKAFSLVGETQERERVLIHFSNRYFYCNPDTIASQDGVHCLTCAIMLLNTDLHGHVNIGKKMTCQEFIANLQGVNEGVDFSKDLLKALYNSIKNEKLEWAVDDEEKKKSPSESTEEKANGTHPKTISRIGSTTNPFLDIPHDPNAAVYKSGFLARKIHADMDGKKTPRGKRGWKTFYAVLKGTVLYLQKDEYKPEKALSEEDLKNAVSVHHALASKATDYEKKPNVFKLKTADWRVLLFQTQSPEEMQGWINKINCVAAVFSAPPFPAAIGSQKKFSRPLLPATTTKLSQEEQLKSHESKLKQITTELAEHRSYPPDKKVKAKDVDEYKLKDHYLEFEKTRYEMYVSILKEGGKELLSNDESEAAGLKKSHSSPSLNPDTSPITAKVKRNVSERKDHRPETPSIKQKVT
UniProt P15151: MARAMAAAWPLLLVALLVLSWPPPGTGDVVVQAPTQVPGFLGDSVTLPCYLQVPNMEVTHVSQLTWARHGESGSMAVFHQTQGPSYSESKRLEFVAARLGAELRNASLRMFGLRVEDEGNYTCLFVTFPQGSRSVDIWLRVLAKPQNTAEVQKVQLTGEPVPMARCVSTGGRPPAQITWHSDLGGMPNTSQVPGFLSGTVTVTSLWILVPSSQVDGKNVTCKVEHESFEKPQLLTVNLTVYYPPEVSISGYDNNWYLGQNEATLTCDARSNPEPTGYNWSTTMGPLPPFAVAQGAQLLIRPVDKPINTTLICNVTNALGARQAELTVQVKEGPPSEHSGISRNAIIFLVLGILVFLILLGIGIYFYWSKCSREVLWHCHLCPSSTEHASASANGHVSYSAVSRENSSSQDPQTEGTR
UniProt Q9ULZ3, whole entry, looked up: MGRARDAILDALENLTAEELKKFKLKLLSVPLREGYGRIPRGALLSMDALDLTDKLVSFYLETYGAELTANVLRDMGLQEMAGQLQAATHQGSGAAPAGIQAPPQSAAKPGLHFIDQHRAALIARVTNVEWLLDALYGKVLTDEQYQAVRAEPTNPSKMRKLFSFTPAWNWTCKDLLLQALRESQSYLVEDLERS
UniProt Q9UKA9: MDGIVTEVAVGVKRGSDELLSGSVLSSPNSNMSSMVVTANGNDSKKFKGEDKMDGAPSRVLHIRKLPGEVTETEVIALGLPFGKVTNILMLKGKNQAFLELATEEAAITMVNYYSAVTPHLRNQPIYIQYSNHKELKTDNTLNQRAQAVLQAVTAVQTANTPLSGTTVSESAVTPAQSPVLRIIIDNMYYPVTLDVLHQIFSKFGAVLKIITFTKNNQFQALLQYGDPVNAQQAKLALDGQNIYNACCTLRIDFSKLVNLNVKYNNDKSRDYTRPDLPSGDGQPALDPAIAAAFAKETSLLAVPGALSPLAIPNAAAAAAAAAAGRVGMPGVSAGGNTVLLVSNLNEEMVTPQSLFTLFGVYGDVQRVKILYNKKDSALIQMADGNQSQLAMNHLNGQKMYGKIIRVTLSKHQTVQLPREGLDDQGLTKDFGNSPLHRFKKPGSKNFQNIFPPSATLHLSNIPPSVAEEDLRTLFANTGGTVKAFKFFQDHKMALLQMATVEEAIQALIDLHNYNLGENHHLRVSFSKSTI
UniProt Q9UHX1: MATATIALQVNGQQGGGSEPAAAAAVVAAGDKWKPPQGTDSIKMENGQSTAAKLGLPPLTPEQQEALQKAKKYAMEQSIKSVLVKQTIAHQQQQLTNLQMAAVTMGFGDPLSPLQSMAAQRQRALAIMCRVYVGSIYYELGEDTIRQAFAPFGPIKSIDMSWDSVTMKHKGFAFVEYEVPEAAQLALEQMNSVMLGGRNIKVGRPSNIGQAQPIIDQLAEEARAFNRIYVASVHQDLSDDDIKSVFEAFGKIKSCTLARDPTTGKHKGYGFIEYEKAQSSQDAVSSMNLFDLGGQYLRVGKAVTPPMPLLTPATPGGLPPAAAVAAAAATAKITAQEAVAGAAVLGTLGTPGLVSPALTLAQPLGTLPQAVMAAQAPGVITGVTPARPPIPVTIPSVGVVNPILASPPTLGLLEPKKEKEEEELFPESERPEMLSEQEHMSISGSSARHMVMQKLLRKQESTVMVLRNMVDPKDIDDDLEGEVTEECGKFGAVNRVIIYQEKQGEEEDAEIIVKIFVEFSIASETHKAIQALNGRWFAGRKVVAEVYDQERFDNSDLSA
UniProt Q9BRQ0: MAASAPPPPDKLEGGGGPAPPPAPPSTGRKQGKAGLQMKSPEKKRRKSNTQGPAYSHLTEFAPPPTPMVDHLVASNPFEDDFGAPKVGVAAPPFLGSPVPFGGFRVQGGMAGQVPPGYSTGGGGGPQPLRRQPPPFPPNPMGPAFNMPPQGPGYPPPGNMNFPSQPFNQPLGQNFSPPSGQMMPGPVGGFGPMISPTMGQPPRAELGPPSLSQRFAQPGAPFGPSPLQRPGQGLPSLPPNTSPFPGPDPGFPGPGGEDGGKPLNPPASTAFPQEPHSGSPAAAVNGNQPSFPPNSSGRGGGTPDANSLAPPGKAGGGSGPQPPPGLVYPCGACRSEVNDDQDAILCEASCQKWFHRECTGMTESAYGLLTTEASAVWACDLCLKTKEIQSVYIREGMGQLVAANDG

Assays:
Test in all cases: log2 fold change, soluble protein after heating vs DMSO (PISA); higher = thermal stabilisation; K562 cells, 10 uM, 30 min; active = over 0.2 and 3.5 SD of the protein, either way, in both replicates (recomputed)
[1] = compound: C/C(=N\NC(=O)C1=CC(=CC=C1)S(=O)(=O)N2CCOCC2)/C3=C(C=CC(=C3)Cl)O
Summary of the method: (§1)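 K562 cells (2×10^6 cells/mL) were treated with 10 μM compound for 30 min, and aliquots were heated for 3 min over 48°C-58°C. Pooled aliquots were extracted in PBS with 0.5% NP-40 at 4°C, and the supernatant after 21,000xg for 90 min was measured by TMTpro 16plex LC-MS/MS with channel sums equalised. Reported thermal stability, relative to control samples and from duplicates, is a log2 fold change.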

[2] = compound: C1=CC2=C(C=CC(=C2)/C=C\3/C(=O)NC(=NCC4=CC=CS4)S3)N=C1
Summary of the method: as §1

[3] = compound: C1=CC=C(C=C1)C2=NC(=C(N2)C3=CC=NC=C3)C4=CC(=C(C=C4)Cl)O
Summary of the method: as §1

[4] = compound: C1=CC=C2C(=C1)C3=NNC4=CC=CC(=C43)C2=O
Summary of the method: as §1

[5] = compound: C1CCN(C1)C(=O)NC2=CC=CC(=C2)NC3=NC=C(C(=N3)NCCC4=CN=CN4)Br
Summary of the method: as §1

[6] = compound: C1CN(CCC1(CC2=CC=C(C=C2)Cl)N)C3=NC=NC4=C3C=CN4
Summary of the method: as §1

[7] = compound: C1COCCN1CCN2C3=CC=CC=C3N=C2NC(=O)C4=CC(=CC=C4)[N+](=O)[O-] [IRAK-1-4 Inhibitor I]
Summary of the method: as §1

[8] = compound: CC(=O)c1cnc2ccc(-c3cc(Cl)c(O)c(Cl)c3)nc2c1N[C@H]1CC[C@H](CN(C)C)CC1
Summary of the method: as §1

[9] = compound: CC(C)(C)Cn1c(N)nc2ccc(-c3[nH]c(C(C)(C)C)nc3-c3ccc(F)cc3)nc21 [ralimetinib]
Summary of the method: as §1

[10] = compound: CC(C)C[C@@H](C=O)NC(=O)[C@H](CC(C)C)NC(=O)[C@H](CC(C)C)NC(=O)OCc1ccccc1
Summary of the method: as §1

[11] = compound: CC(C)N(C[C@H]1O[C@@H](n2cnc3c(N)ncnc32)[C@H](O)[C@@H]1O)[C@H]1C[C@@H](CCc2nc3cc(C(C)(C)C)ccc3[nH]2)C1 [pinometostat]
Summary of the method: as §1

[12] = compound: CC1=C(C2=C(C=C1)C(=O)C3=CC=CC=C3N2CCCN)C
Summary of the method: as §1

[13] = compound: C#Cc1cccc(Nc2ncnc3cc(OCCOC)c(OCCOC)cc23)c1 [erlotinib]
Summary of the method: as §1

[14] = compound: C1=CC(=CC=C1C2=NC3=C(N2)C=C(C=C3)C(=O)N)OC4=CC=C(C=C4)Cl
Summary of the method: as §1

[15] = compound: CC(C)C1=C2N=C(C=C(N2N=C1)NCC3=CC=CC=C3)NCCCCCCN
Summary of the method: as §1

[16] = compound: CC1=C(C(CC(=O)N1)C2=CC=C(C=C2)C(F)(F)F)C(=O)NC3=C(C=C4C(=C3)C=NN4)F
Summary of the method: as §1

[17] = compound: C1=CC(=C(C=C1Cl)C2=NC3=NC=CN=C3C(=N2)NC4=CC=NC=C4)F
Summary of the method: as §1

[18] = compound: CC(C)(O)CC(=O)NCCn1ccc2ncnc(Nc3ccc(Oc4cccc(C(F)(F)F)c4)c(Cl)c3)c21
Summary of the method: as §1

[19] = compound: C1=CC2=NC=CN=C2C=C1/C=C/3\C(=O)NC(=O)S3
Summary of the method: as §1

[20] = compound: C=CC(=O)N1CCC[C@@H](n2nc(-c3ccc(Oc4ccccc4)cc3)c3c(N)ncnc32)C1 [ibrutinib]
Summary of the method: as §1

Measured: log2 fold change

PSMA3 (UniProt H0YJ03)
active: [1] -0.698
inactive: [2] 0.095 | [3] -0.065 | [4] -0.006 | [5] -0.027 | [6] 0.2 | [7] 0.023 | [8] 0.052 | [9] 0.14 | [10] 0.067 | [11] 0.061 | [12] 0.046

R3HCC1L (UniProt Q7Z5L2)
inactive: [13] -0.159 | [1] -0.1 | [14] 0.03 | [2] -0.016 | [4] 0.11 | [5] 0.401 | [6] -0.078 | [8] 0.066 | [15] -0.046 | [16] -0.291 | [12] 0.116

PSMD8 (UniProt K7ERW6)
inactive: [5] 0.052 | [6] -0.148 | [7] 0.018 | [11] 0.001 | [12] 0.037

PTPN18 (UniProt Q99952)
inactive: [13] -0.087 | [14] -0.037 | [3] 0.064 | [7] -0.23 | [9] 0.144 | [15] 0.072 | [10] -0.135 | [11] 0.004 | [16] 0.118

PSIP1 (UniProt V9GYT7)
inactive: [3] 0.052 | [5] 0.024 | [6] -0.054 | [7] 0.182 | [9] 0.118 | [10] 0.036 | [11] 0.016 | [16] 0.042 | [12] 0.137

PSMB8 (UniProt P28062)
inactive: [13] -0.001 | [1] 0.075 | [14] -0.003 | [2] 0.001 | [4] -0.114 | [7] -0.055 | [8] -0.336 | [15] -0.047 | [11] -0.028 | [16] -0.202

PUM1 (UniProt Q14671)
inactive: [13] 0.308 | [1] 0.035 | [14] 0.15 | [2] -0.034 | [4] 0.051 | [5] -0.045 | [6] -0.024 | [7] 0.101 | [8] -0.038 | [15] -0.226 | [11] 0.073 | [12] 0.139

PTPRJ (UniProt Q12913)
inactive: [17] -0.152 | [18] -0.129

PSMB5 isoform 3 (UniProt P28074)
inactive: [1] -0.287 | [17] -0.153 | [2] 0.172 | [19] 0.045 | [3] -0.12 | [4] -0.218 | [5] 0.225 | [6] 0.204 | [20] -0.058 | [8] -0.154 | [9] -0.205 | [18] -0.194 | [10] 0.34 | [12] 0.144

R3HDM1 isoform 2 (UniProt Q15032)
inactive: [13] -0.021 | [1] 0.133 | [14] -0.058 | [2] 0.233 | [19] 0.031 | [3] -0.158 | [4] 0.044 | [5] 0.013 | [6] 0.162 | [7] 0.053 | [20] -0.084 | [8] -0.184 | [9] 0.028 | [15] -0.024 | [10] 0.06 | [11] 0.005 | [16] -0.029 | [12] 0.112

PSMC1 (UniProt G3V4X1)
inactive: [13] 0.149 | [14] -0.001 | [15] -0.089

PTRH1 (UniProt Q86Y79)
inactive: [1] -0.033 | [2] 0.013 | [3] 0.118 | [4] -0.016 | [7] -0.055 | [8] -0.145 | [9] 0.17 | [10] -0.037 | [11] 0.037

PSMD4 (UniProt Q5VWC4)
inactive: [1] -0.07 | [17] 0.042 | [2] -0.07 | [19] 0.045 | [4] -0.044 | [7] -0.058 | [20] -0.101 | [8] 0.048 | [18] -0.012 | [11] 0.022 | [16] -0.084

PSMB2, A0A087WVV1
inactive: [13] 0.335 | [1] 0.071 | [14] 0.028 | [2] -0.089 | [19] 0.042 | [3] 0.02 | [4] 0.072 | [7] -0.174 | [20] -0.076 | [8] 0.177 | [9] 0.009 | [15] -0.172 | [10] -0.2 | [11] -0.175 | [16] 0.176

PURG (UniProt Q9UJV8)
inactive: [17] -0.514 | [18] 0.483 | [16] -0.053

PTP4A3 (UniProt O75365)
inactive: [19] -0.041 | [20] 0.079

PSD3 (UniProt Q9NYI0)
inactive: [1] -0.022 | [2] 0.1 | [3] -0.001 | [4] 0.018 | [7] 0.014 | [8] -0.024 | [9] -0.026 | [10] -0.055 | [11] -0.037

PUSL1 (UniProt Q8N0Z8)
inactive: [13] 0.132 | [17] -0.317 | [14] -0.11 | [3] 0.058 | [5] 0.025 | [6] -0.089 | [9] 0.242 | [18] 0.077 | [15] 0.132 | [10] 0.174 | [12] -0.213

PSD2 (UniProt Q9BQI7)
inactive: [1] -0.664 | [17] -0.153 | [2] -0.086 | [3] -0.412 | [4] -0.089 | [8] 0.045 | [9] -0.267 | [18] 0.079 | [10] 0.145 | [16] 0.042

PVR (UniProt P15151)
inactive: [1] 0.123 | [17] 0.054 | [2] -0.034 | [19] 0.055 | [4] -0.074 | [5] -0.052 | [6] 0.036 | [20] 0.048 | [8] -0.088 | [18] 0.047 | [12] 0.011

R3HCC1 (UniProt Q9Y3T6)
inactive: [13] 0.103 | [1] -0.193 | [14] -0.071 | [2] 0.004 | [3] -0.032 | [4] -0.118 | [5] -0.109 | [6] -0.066 | [7] -0.028 | [8] 0.063 | [9] -0.378 | [15] -0.106 | [10] 0.132 | [11] -0.019 | [16] -0.033 | [12] 0.155

PSMC3 (UniProt E9PLG2)
inactive: [17] -0.437 | [19] 0.151 | [5] 0.27 | [6] -0.045 | [7] -0.064 | [20] -0.051 | [18] 0.167 | [11] -0.1 | [12] -0.155

PTGER3 isoform 2 (UniProt P43115)
inactive: [13] 0.063 | [1] -0.055 | [14] 0.24 | [2] 0.162 | [3] -0.011 | [4] 0.315 | [7] -0.126 | [8] 0.148 | [9] -0.618 | [15] -0.1 | [10] -0.007 | [11] 0.396

PTPN7 isoform 3 (UniProt P35236)
inactive: [13] 0.088 | [14] -0.208 | [3] 0.061 | [9] 0.375 | [15] -0.261 | [10] 0.274

PTPRN2 isoform 3 (UniProt Q92932)
inactive: [1] -0.075 | [17] -0.017 | [2] 0.339 | [19] -0.23 | [4] 0.027 | [7] -0.108 | [20] 0.047 | [8] -0.455 | [18] 0.085 | [11] 0.114 | [16] 0.178

PYCARD isoform 2 (UniProt Q9ULZ3)
inactive: [13] -0.222 | [14] 0.227 | [3] 0.005 | [7] -0.124 | [9] 0.003 | [15] -0.054 | [10] 0.075 | [11] 0.017

Two records picked at random from the list so far:
PTGER3 isoform 2 (UniProt P43115)
inactive: [13] 0.063 | [1] -0.055 | [14] 0.24 | [2] 0.162 | [3] -0.011 | [4] 0.315 | [7] -0.126 | [8] 0.148 | [9] -0.618 | [15] -0.1 | [10] -0.007 | [11] 0.396

PSMC3 (UniProt E9PLG2)
inactive: [17] -0.437 | [19] 0.151 | [5] 0.27 | [6] -0.045 | [7] -0.064 | [20] -0.051 | [18] 0.167 | [11] -0.1 | [12] -0.155

Later entries

PTEN isoform 2 (UniProt P60484)
active: [15] -0.629
inactive: [13] 0.264 | [14] 0.061 | [3] 0.178 | [7] -0.227 | [9] 0.062 | [10] 0.083 | [11] -0.006

PTBP2 isoform 3 (UniProt Q9UKA9)
inactive: [13] -0.045 | [14] 0.009 | [7] 0.035 | [15] 0.02 | [11] 0.101

PSMB10 (UniProt P40306)
inactive: [1] -0.093 | [2] 0.212 | [4] -0.023 | [8] -0.233 | [16] -0.028

PUF60 isoform 2 (UniProt Q9UHX1)
inactive: [1] 0.242 | [2] -0.242 | [19] 0.086 | [3] 0.05 | [4] 0.046 | [5] -0.148 | [6] -0.148 | [20] 0.035 | [8] -0.329 | [9] 0.25 | [10] -0.203 | [12] -0.052

PYGO2 (UniProt Q9BRQ0)
inactive: [13] -0.036 | [17] 0.138 | [14] 0.129 | [19] 0.046 | [3] -0.204 | [7] 0.04 | [20] -0.023 | [9] -0.104 | [18] 0.14 | [15] 0.139 | [10] 0.151 | [11] -0.002 | [16] 0.005
